Consider 4 molecules from publication PMC12371199, “Identification of c‐Met on Tumor Cells as a Novel Receptor for B7‐H3 Entails Implications for Cancer Cell Stemness and Targeted Therapy” (MedComm, 2025).

Amino acid sequences for entries named in this document (tags omitted). A change or cut given only in a name is not applied to a line headed by its entry. Residues count along the entry.
UniProt P08581: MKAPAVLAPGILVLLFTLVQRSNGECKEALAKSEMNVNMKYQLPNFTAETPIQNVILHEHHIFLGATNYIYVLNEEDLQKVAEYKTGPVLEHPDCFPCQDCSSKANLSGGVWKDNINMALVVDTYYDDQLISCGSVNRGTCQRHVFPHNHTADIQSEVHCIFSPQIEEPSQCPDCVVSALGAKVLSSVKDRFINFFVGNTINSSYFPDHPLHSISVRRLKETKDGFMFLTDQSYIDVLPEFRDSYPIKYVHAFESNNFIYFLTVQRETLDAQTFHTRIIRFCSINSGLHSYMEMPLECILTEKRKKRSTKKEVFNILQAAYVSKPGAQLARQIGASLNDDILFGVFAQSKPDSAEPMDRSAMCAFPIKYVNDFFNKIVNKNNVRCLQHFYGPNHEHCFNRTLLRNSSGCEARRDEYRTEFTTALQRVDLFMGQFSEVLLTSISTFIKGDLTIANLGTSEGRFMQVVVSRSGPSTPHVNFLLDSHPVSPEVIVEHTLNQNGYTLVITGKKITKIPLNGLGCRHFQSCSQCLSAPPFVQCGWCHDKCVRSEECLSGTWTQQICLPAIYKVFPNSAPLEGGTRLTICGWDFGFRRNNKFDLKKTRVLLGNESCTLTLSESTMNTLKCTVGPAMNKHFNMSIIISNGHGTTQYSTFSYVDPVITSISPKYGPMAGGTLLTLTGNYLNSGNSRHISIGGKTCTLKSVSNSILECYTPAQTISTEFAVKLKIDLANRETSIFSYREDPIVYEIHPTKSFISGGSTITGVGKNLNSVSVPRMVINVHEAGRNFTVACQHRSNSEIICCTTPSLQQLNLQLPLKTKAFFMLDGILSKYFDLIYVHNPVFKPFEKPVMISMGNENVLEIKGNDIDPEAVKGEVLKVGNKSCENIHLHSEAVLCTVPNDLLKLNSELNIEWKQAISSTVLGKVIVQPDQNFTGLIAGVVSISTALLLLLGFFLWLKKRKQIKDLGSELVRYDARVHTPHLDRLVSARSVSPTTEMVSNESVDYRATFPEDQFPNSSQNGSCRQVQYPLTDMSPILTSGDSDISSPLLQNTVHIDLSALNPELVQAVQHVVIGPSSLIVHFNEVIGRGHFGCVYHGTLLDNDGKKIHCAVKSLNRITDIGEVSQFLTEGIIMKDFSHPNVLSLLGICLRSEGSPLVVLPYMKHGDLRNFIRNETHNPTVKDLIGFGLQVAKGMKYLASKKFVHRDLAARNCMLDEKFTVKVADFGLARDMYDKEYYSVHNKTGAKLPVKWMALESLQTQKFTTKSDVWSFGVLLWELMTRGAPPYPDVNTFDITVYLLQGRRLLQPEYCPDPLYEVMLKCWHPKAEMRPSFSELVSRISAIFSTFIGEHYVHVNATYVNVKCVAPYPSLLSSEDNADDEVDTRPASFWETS
c‐Met (endogenous, in tumor cell lines) (human (endogenous in U87MG, SW480, HCT116)): residues 25-1390 of P08581
purified recombinant extracellular domain of c‐Met (from Met1 to Thr932), c‐Met‐his: residues 25-932 of P08581
UniProt P14210, residues 32-728: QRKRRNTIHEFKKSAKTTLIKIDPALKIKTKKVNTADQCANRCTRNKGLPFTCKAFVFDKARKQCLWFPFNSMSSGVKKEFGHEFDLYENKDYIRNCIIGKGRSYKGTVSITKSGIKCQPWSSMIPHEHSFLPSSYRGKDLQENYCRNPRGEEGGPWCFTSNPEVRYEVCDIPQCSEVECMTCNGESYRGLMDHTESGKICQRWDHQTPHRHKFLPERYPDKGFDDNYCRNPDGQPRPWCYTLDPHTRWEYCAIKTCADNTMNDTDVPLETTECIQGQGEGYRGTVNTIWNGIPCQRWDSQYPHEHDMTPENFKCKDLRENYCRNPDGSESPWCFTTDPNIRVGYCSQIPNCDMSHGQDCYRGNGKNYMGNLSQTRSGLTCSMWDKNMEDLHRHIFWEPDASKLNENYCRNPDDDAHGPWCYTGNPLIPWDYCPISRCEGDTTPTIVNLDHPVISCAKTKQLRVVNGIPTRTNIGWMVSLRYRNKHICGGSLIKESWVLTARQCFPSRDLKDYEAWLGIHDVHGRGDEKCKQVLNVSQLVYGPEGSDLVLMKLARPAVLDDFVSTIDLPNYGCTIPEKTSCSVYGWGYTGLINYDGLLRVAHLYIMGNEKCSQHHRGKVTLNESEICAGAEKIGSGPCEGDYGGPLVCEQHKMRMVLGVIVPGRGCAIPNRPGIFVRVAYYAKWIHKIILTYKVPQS

Results are given in words; binding and its absence hold for the method and conditions named. For some of these results: Binding seen in cells or lysates may run through a third protein. Some results given as binding are weak or reduced against the parent protein; the word gives no strength. For some of these results: Sequences can lack the tags named with a protein.

Experiment [1] has as its target purified recombinant extracellular domain of c‐Met (from Met1 to Thr932), c‐Met‐his (human) (UniProt P08581). Put plainly: ELISA; plates pre‐coated with c‐Met (5 or 10 µg/mL) or PD‐1 (10 µg/mL); B7‐H3 (5 µg/mL or gradient) or HGF (1 µg/mL) in solution; both purified. Background: In an ELISA, binding on a coated surface is turned into a signal by an enzyme label.
Experiment [2] concerns the target T1, HA‐strep tagged B7‐H3 (human) (UniProt Q5ZPR3).
T1 sequence: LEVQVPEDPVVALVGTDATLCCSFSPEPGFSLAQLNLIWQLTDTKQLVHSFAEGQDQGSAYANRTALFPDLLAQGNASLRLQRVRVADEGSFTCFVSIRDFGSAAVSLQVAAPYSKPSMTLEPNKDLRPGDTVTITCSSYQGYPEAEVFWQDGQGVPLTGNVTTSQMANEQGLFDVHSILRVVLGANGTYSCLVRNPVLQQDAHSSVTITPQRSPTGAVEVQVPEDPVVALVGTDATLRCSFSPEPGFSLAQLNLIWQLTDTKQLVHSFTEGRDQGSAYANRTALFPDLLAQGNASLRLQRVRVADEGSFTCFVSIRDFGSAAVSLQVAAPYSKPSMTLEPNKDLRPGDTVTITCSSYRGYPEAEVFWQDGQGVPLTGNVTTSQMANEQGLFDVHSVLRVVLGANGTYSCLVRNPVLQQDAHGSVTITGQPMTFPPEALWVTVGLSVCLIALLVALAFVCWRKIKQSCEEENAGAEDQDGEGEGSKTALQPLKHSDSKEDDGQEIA
Put plainly: co-IP; lysates of U87MG or SW480 cells overexpressing HA‐strep tagged B7‐H3; immunoprecipitation with anti‐HA antibody, blot with anti‐c‐Met antibody.

Experiment [3] has as its target c‐Met (endogenous, in tumor cell lines) (human (endogenous in U87MG, SW480, HCT116)) (UniProt P08581). Briefly: co-IP; cell lysate (SW480 overexpressing HA‐tagged B7‐H3) immunoprecipitated with anti‐c‐Met antibody, blot for HA‐tagged B7‐H3; IgG control.
The target is the same in experiment [4]. Briefly: proximity ligation; Duolink in situ PLA in HCT116 and U87MG cells with B7‐H3 and c‐Met antibodies; single antibodies as controls.

Turning to “HGF (from UniProt P14210 32-728) (ligand)”, the binding entry in experiment [1] is on record as “binds”.
With “c‐Met (endogenous, in tumor cell lines) (from UniProt P08581 25-1390) (receptor)”, in experiment [2], the binding result was “binds”.

B1: HA‐strep tagged B7‐H3 (protein, UniProt Q5ZPR3 29-534)
chain: LEVQVPEDPVVALVGTDATLCCSFSPEPGFSLAQLNLIWQLTDTKQLVHSFAEGQDQGSAYANRTALFPDLLAQGNASLRLQRVRVADEGSFTCFVSIRDFGSAAVSLQVAAPYSKPSMTLEPNKDLRPGDTVTITCSSYQGYPEAEVFWQDGQGVPLTGNVTTSQMANEQGLFDVHSILRVVLGANGTYSCLVRNPVLQQDAHSSVTITPQRSPTGAVEVQVPEDPVVALVGTDATLRCSFSPEPGFSLAQLNLIWQLTDTKQLVHSFTEGRDQGSAYANRTALFPDLLAQGNASLRLQRVRVADEGSFTCFVSIRDFGSAAVSLQVAAPYSKPSMTLEPNKDLRPGDTVTITCSSYRGYPEAEVFWQDGQGVPLTGNVTTSQMANEQGLFDVHSVLRVVLGANGTYSCLVRNPVLQQDAHGSVTITGQPMTFPPEALWVTVGLSVCLIALLVALAFVCWRKIKQSCEEENAGAEDQDGEGEGSKTALQPLKHSDSKEDDGQEIA
Regarding B1, the binding entry in experiment [3] is “binds”.

B2: B7‐H3 in HCT116 and U87MG cells (proximity ligation assay) (protein, UniProt Q5ZPR3 29-534)
chain: LEVQVPEDPVVALVGTDATLCCSFSPEPGFSLAQLNLIWQLTDTKQLVHSFAEGQDQGSAYANRTALFPDLLAQGNASLRLQRVRVADEGSFTCFVSIRDFGSAAVSLQVAAPYSKPSMTLEPNKDLRPGDTVTITCSSYQGYPEAEVFWQDGQGVPLTGNVTTSQMANEQGLFDVHSILRVVLGANGTYSCLVRNPVLQQDAHSSVTITPQRSPTGAVEVQVPEDPVVALVGTDATLRCSFSPEPGFSLAQLNLIWQLTDTKQLVHSFTEGRDQGSAYANRTALFPDLLAQGNASLRLQRVRVADEGSFTCFVSIRDFGSAAVSLQVAAPYSKPSMTLEPNKDLRPGDTVTITCSSYRGYPEAEVFWQDGQGVPLTGNVTTSQMANEQGLFDVHSVLRVVLGANGTYSCLVRNPVLQQDAHGSVTITGQPMTFPPEALWVTVGLSVCLIALLVALAFVCWRKIKQSCEEENAGAEDQDGEGEGSKTALQPLKHSDSKEDDGQEIA
As for B2, in experiment [4], the binding result is “binds”.
